No constants are given. Whether binding was seen depends on the method and setting. Some entries that bind do so weakly or less than the wild type.
Target: human CC-chemokine receptor 2 (CCR2), endogenous on THP-1 cells, THP-1 membranes and human blood cells (human) (UniProt P41597)
Experiment: competition with 0.1 nM [125I]-MCP-1 on whole THP-1 cells

By UniProt entry, the sequences of proteins in these tests, tags left out.
UniProt P41597: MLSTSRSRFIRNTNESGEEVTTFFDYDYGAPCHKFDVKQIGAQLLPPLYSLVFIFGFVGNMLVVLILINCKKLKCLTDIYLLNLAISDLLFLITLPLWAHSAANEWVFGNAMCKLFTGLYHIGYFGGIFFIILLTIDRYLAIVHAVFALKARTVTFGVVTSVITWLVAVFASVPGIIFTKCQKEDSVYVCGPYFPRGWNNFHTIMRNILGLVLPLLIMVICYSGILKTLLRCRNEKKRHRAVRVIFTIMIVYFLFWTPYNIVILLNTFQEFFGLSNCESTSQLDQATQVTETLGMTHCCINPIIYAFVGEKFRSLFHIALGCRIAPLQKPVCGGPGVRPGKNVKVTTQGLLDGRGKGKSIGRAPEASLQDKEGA

binding: binds
B1: humanized version of mAb 1D9 (heavy chain 1D9RHAVH, light chain 1D9RKAVK) (antibody, V domains shown)
VH: EVQLVESGGGLVKPGGSLRLSCAASGFTFSAYAMNWVRQAPGKGLEWVGRIRTKNNNYATYYADSVKDRFTISRDDSKNTLYLQMNSLKTEDTAVYYCTTFYGNGVWGQGTLVTVSS
VL: DVVMTQSPLSLPVTLGQPASISCKSSQSLLDSDGKTFLNWFQQRPGQSPRRLIYLVSKLDSGVPDRFSGSGSGTDFTLKISRVEAEDVGVYYCWQGTHFPYTFGQGTRLEIK
